Results taken from the supplement of paper PMC8728848.
The other results are listed elsewhere or left out.

Experiments:
Experiment in all cases: glycan array binding signal (z-score within array); higher = stronger binding
Details in all cases: glycan notation: IUPAC condensed, linker removed
[1] = molecular target: Gal(b1-4)GlcNAc(b1-3)Gal(b1-4)Glc
In short: (§1)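 The Consortium for Functional Glycomics database supplied 3228 glycan arrays, of which those lacking an available protein sequence were dropped. The binding signal, a within-array Z-score, was averaged across arrays of the same protein sequence and across linkers. Negative scores can be read as non-binding.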

[2] = molecular target: Gal(b1-4)GlcNAc(b1-3)Gal(b1-4)GlcNAc
In short: as §1

[3] = molecular target: Gal(b1-4)GlcNAc(b1-3)Gal(b1-4)GlcNAc(b1-2)Man(a1-3)[Gal(b1-4)GlcNAc(b1-3)Gal(b1-4)GlcNAc(b1-2)Man(a1-6)]Man(b1-4)GlcNAc(b1-4)GlcNAc
In short: as §1

[4] = molecular target: Gal(b1-4)GlcNAc(b1-3)Gal(b1-4)GlcNAc(b1-2)Man(a1-3)[Gal(b1-4)GlcNAc(b1-3)Gal(b1-4)GlcNAc(b1-2)Man(a1-6)]Man(b1-4)GlcNAc(b1-4)[Fuc(a1-6)]GlcNAc
In short: as §1

[5] = molecular target: Gal(b1-4)GlcNAc(b1-3)Gal(b1-4)GlcNAc(b1-2)[Gal(b1-4)GlcNAc(b1-3)Gal(b1-4)GlcNAc(b1-6)]Man(a1-6)[Gal(b1-4)GlcNAc(b1-3)Gal(b1-4)GlcNAc(b1-2)Man(a1-3)]Man(b1-4)GlcNAc(b1-4)GlcNAc
In short: as §1

[6] = molecular target: Gal(b1-4)GlcNAc(b1-3)Gal(b1-4)GlcNAc(b1-2)[Gal(b1-4)GlcNAc(b1-3)Gal(b1-4)GlcNAc(b1-6)]Man(a1-6)[Gal(b1-4)GlcNAc(b1-3)Gal(b1-4)GlcNAc(b1-2)Man(a1-3)]Man(b1-4)GlcNAc(b1-4)[Fuc(a1-6)]GlcNAc
In short: as §1

[7] = molecular target: Gal(b1-4)GlcNAc(b1-3)Gal(b1-4)GlcNAc(b1-3)Gal(b1-4)GlcNAc
In short: as §1

[8] = molecular target: Gal(b1-4)GlcNAc(b1-3)Gal(b1-4)GlcNAc(b1-3)Gal(b1-4)GlcNAc(b1-2)Man(a1-3)[Gal(b1-4)GlcNAc(b1-3)Gal(b1-4)GlcNAc(b1-3)Gal(b1-4)GlcNAc(b1-2)Man(a1-6)]Man(b1-4)GlcNAc(b1-4)GlcNAc
In short: as §1

[9] = molecular target: Gal(b1-4)GlcNAc(b1-3)Gal(b1-4)GlcNAc(b1-3)Gal(b1-4)GlcNAc(b1-2)Man(a1-3)[Gal(b1-4)GlcNAc(b1-3)Gal(b1-4)GlcNAc(b1-3)Gal(b1-4)GlcNAc(b1-2)Man(a1-6)]Man(b1-4)GlcNAc(b1-4)[Fuc(a1-6)]GlcNAc
In short: as §1

[10] = molecular target: Gal(b1-4)GlcNAc(b1-3)Gal(b1-4)GlcNAc(b1-3)Gal(b1-4)GlcNAc(b1-2)[Gal(b1-4)GlcNAc(b1-3)Gal(b1-4)GlcNAc(b1-3)Gal(b1-4)GlcNAc(b1-6)]Man(a1-6)[Gal(b1-4)GlcNAc(b1-3)Gal(b1-4)GlcNAc(b1-3)Gal(b1-4)GlcNAc(b1-2)Man(a1-3)]Man(b1-4)GlcNAc(b1-4)[Fuc(a1-6)]GlcNAc
In short: as §1

[11] = molecular target: Gal(b1-4)GlcNAc(b1-3)Gal(b1-4)GlcNAc(b1-3)Gal(b1-4)GlcNAc(b1-3)Gal(b1-4)GlcNAc(b1-2)Man(a1-3)[Gal(b1-4)GlcNAc(b1-3)Gal(b1-4)GlcNAc(b1-3)Gal(b1-4)GlcNAc(b1-3)Gal(b1-4)GlcNAc(b1-2)Man(a1-6)]Man(b1-4)GlcNAc(b1-4)GlcNAc
In short: as §1

[12] = molecular target: Gal(b1-4)GlcNAc(b1-3)Gal(b1-4)GlcNAc(b1-3)Gal(b1-4)GlcNAc(b1-3)Gal(b1-4)GlcNAc(b1-2)Man(a1-3)[Gal(b1-4)GlcNAc(b1-3)Gal(b1-4)GlcNAc(b1-3)Gal(b1-4)GlcNAc(b1-3)Gal(b1-4)GlcNAc(b1-2)Man(a1-6)]Man(b1-4)GlcNAc(b1-4)[Fuc(a1-6)]GlcNAc
In short: as §1

[13] = molecular target: Gal(b1-4)GlcNAc(b1-3)Gal(b1-4)GlcNAc(b1-3)Gal(b1-4)GlcNAc(b1-3)Gal(b1-4)GlcNAc(b1-2)[Gal(b1-4)GlcNAc(b1-3)Gal(b1-4)GlcNAc(b1-3)Gal(b1-4)GlcNAc(b1-3)Gal(b1-4)GlcNAc(b1-6)]Man(a1-6)[Gal(b1-4)GlcNAc(b1-3)Gal(b1-4)GlcNAc(b1-3)Gal(b1-4)GlcNAc(b1-3)Gal(b1-4)GlcNAc(b1-2)Man(a1-3)]Man(b1-4)GlcNAc(b1-4)[Fuc(a1-6)]GlcNAc
In short: as §1

[14] = molecular target: Gal(b1-4)GlcNAc(b1-3)Gal(b1-4)GlcNAc(b1-3)Gal(b1-4)GlcNAc(b1-3)Gal(b1-4)GlcNAc(b1-3)Gal(b1-4)GlcNAc(b1-2)Man(a1-3)[Gal(b1-4)GlcNAc(b1-3)Gal(b1-4)GlcNAc(b1-3)Gal(b1-4)GlcNAc(b1-3)Gal(b1-4)GlcNAc(b1-3)Gal(b1-4)GlcNAc(b1-2)Man(a1-6)]Man(b1-4)GlcNAc(b1-4)GlcNAc
In short: as §1

[15] = molecular target: Gal(b1-4)GlcNAc(b1-3)Gal(b1-4)GlcNAc(b1-3)Gal(b1-4)GlcNAc(b1-3)Gal(b1-4)GlcNAc(b1-3)Gal(b1-4)GlcNAc(b1-2)Man(a1-3)[Gal(b1-4)GlcNAc(b1-3)Gal(b1-4)GlcNAc(b1-3)Gal(b1-4)GlcNAc(b1-3)Gal(b1-4)GlcNAc(b1-3)Gal(b1-4)GlcNAc(b1-2)Man(a1-6)]Man(b1-4)GlcNAc(b1-4)[Fuc(a1-6)]GlcNAc
In short: as §1

[16] = molecular target: Gal(b1-4)GlcNAc(b1-3)Gal(b1-4)GlcNAc(b1-3)Gal(b1-4)GlcNAc(b1-3)Gal(b1-4)GlcNAc(b1-3)Gal(b1-4)GlcNAc(b1-2)[Gal(b1-4)GlcNAc(b1-3)Gal(b1-4)GlcNAc(b1-3)Gal(b1-4)GlcNAc(b1-3)Gal(b1-4)GlcNAc(b1-3)Gal(b1-4)GlcNAc(b1-6)]Man(a1-6)[Gal(b1-4)GlcNAc(b1-3)Gal(b1-4)GlcNAc(b1-3)Gal(b1-4)GlcNAc(b1-3)Gal(b1-4)GlcNAc(b1-3)Gal(b1-4)GlcNAc(b1-2)Man(a1-3)]Man(b1-4)GlcNAc(b1-4)[Fuc(a1-6)]GlcNAc
In short: as §1

[17] = molecular target: Gal(b1-4)GlcNAc(b1-3)Gal(b1-4)GlcNAc(b1-3)Gal(b1-4)GlcNAc(b1-3)Gal(b1-4)GlcNAc(b1-3)Gal(b1-4)GlcNAc(b1-3)Gal(b1-4)GlcNAc(b1-2)Man(a1-3)[Gal(b1-4)GlcNAc(b1-3)Gal(b1-4)GlcNAc(b1-3)Gal(b1-4)GlcNAc(b1-3)Gal(b1-4)GlcNAc(b1-3)Gal(b1-4)GlcNAc(b1-3)Gal(b1-4)GlcNAc(b1-2)Man(a1-6)]Man(b1-4)GlcNAc(b1-4)GlcNAc
In short: as §1

[18] = molecular target: Gal(b1-4)GlcNAc(b1-3)Gal(b1-4)GlcNAc(b1-3)GalNAc
In short: as §1

[19] = molecular target: Gal(b1-4)GlcNAc(b1-3)Gal(b1-4)GlcNAc(b1-3)[Gal(b1-4)GlcNAc(b1-3)Gal(b1-4)GlcNAc(b1-6)]GalNAc
In short: as §1

B1: TAL6-4LysM (Trichoderma atroviride) (protein)
chain: AADSIPSISPTGIITPTPTQSGMVSNCNKFYDVHSNDGCSAIASSQHVDLSSLYKWNPAIKTDCSGLQASVYVCIGILTTSMSTTSKLPTTTSKPSTTSKPPTGITTPTPTQSGMVKNCNKFYDVHSGDGCSAIASSQKVNLSSFYLWNPAVKTDCSGLQASVFVCIGTLTTSMSTTTSKLPTTTSKPSTTSKPPTGIITPTPTQNGMVKNCNKFYDVHSGDGCSAIASSQKVNLSSFYLWNPAVKTDCSGLQASVFVCVGTATTTTAAGITTPTPTQSGMVSGCNKFYDVHAGDGCSAIASSQKIALSSLYKWNPAVKTDCSGLQASVYICIGVGNAAAARVTGALEQKLISEEDLNSAVDHHHHHH
[1]
  glycan array binding signal (z-score): -0.779
[2]
  glycan array binding signal (z-score): 0.031
[3]
  glycan array binding signal (z-score): 0.103
[4]
  glycan array binding signal (z-score): -0.014
[5]
  glycan array binding signal (z-score): -0.104
[6]
  glycan array binding signal (z-score): 0.236
[7]
  glycan array binding signal (z-score): -0.692
[8]
  glycan array binding signal (z-score): -0.372
[9]
  glycan array binding signal (z-score): 0.792
[10]
  glycan array binding signal (z-score): -0.238
[11]
  glycan array binding signal (z-score): -1.34
[12]
  glycan array binding signal (z-score): 0.567
[13]
  glycan array binding signal (z-score): 0.311
[14]
  glycan array binding signal (z-score): -0.74
[15]
  glycan array binding signal (z-score): 1.5
[16]
  glycan array binding signal (z-score): -0.777
[17]
  glycan array binding signal (z-score): 0.225
[18]
  glycan array binding signal (z-score): 0.204
[19]
  glycan array binding signal (z-score): 0.88
